In US5854211A (Novo Nordisk A/S, priority 1993, dated 1998):

Experiments:
[1] = general procedure: Fmoc solid-phase peptide synthesis; Sasrin resin; HBTU in NMP (Fmoc); preformed symmetrical anhydrides in DMF (Boc); conditions: whole synthesis, scale 1 mmol
[2] = solid-phase peptide synthesis; conditions: whole synthesis, scale 0.5 mmol
[3] = Fmoc solid-phase peptide synthesis; 4-(2',4'-dimethoxyphenyl-Fmoc-aminomethyl)-phenoxy resin (Novabiochem, 0.53 mmol/g); 4-methyl BHA resin (0.72 mmol/g); S; HBTU in NMP (Fmoc); preformed symmetrical anhydrides in DMF (Boc); conditions: whole synthesis, scale 0.25 mmol

Row | Substance | isolated mass [1] | further results
1 | 3-((3-(1-Adoc-4-imidazolyl)propionyl)-D-Trp-Ala.psi.(CH2 NH)Trp-D-Phe-NH)propylamine | 73.53 mg | 
2 | H-His-D-Trp-Ala-Trp-D-Phe.psi.(CH2 NH)Lys-NH2 |  | isolated mass [2]: 20.6 mg
3 | (2S)-((3-(4-Imidazolyl)propionyl)-D-Trp-Ala.psi.(CH2 NH)Trp-D-Phe-NH)-6-aminohexanol | 28.54 mg | 
4 | H-His-D-Trp.psi.(CH2 NH)Ala-Trp-D-Phe-Lys-NH2 |  | isolated mass [3]: 6.55 mg
